Measured values taken from PubChem BioAssay AID743255 (National Center for Advancing Translational Sciences (NCATS), 2014).
Values joined by “and” are separate entries in the source; they are usually repeats but may differ in a detail not shown here. Equal values may be shown once. Screen size: about 390,000 compounds; about 910 (0.23%) were called active. Inconclusive means that the source gave no clear call. Such entries were picked first, then a sample of the others. Calls follow the shape of the dose curve; as a rule, active = well fitted inhibition curve with a large enough effect; inconclusive = small, poorly fitted or top-dose-only effect; inactive = no such curve, though single readings can be large or run the other way. A potency beside an inconclusive call is a rough fit, not a confirmed value.

Chains of the proteins cited; added tags and fusions are not shown. Lines headed by an entry give the natural chain unless they say otherwise; changes in a name come on top.
UniProt O94782: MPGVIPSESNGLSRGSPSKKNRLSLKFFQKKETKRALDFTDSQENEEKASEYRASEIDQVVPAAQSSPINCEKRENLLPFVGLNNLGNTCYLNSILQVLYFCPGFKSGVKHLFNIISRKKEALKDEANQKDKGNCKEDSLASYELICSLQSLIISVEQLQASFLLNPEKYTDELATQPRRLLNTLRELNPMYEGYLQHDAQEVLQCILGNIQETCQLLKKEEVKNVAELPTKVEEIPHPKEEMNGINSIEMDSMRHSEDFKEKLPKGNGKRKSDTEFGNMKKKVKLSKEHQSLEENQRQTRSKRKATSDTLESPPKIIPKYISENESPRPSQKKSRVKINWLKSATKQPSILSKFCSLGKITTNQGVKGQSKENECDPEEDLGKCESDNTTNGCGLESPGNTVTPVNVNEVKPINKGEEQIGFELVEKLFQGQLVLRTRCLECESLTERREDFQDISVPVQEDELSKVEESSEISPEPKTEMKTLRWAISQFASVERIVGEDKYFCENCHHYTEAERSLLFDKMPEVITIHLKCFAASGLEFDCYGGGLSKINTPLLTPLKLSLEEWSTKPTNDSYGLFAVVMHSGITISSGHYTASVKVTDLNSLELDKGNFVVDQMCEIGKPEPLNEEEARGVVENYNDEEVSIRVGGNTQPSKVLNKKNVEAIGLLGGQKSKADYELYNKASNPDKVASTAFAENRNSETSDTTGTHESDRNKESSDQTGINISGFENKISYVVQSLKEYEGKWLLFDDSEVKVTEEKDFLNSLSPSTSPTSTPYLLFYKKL

Each molecule was assayed against Ubiquitin carboxyl-terminal hydrolase 1 (Homo sapiens) (UniProt O94782) (assay: Inhibitors of USP1/UAF1: Primary Screen). Details: recombinant USP1/UAF1, Ub-Rhodamine cleavage fluorescence; activity change, negative = inhibition: at 57.1 µM (top of the series).
In short: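 USP1/UAF1 complex (1 nM) preincubated 15 min at room temperature with compound, then Ub-Rho substrate (150 nM final) added. Kinetic fluorescence at 480/540 nm over 6 reads at 60 s intervals; 50 mM HEPES pH 7.8, 0.5 mM EDTA, 0.1 mg/ml BSA, 1 mM TCEP, 0.01% Tween-20.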
% is scaled to controls: 0 for no effect and ±100 for the full control effect; potency is read from the fitted curve at half-maximal effect.
Also: nearly all actives have a fitted effect of over 60% in size.

Potency, active:
CC1(OC(=O)C2CCCC2)C(=O)C=C2C=C(c3ccc(C#N)cc3)OC=C2C1=O (centres undefined) 31.6 µM
CCC(=O)NC1=C(Cl)C(=O)C(NC(=O)CC)=C(Cl)C1=O 31.6 µM

Potency, inconclusive:
COc1ccc(-c2nnn(CC(=O)N3CCN(c4ccc(F)cc4)CC3)n2)cc1 14.1 µM [inhibitor, partial curve, poor fit]
Cc1noc(C)c1COc1ccc(C(=O)OCC(=O)NCCN2C(=O)CSC2=O)cc1 28.2 µM [inhibitor, partial curve]
Cc1ccc(NC(=O)COc2ncnc3c(Cl)cc(Cl)cc23)cc1[N+](=O)[O-] 44.7 µM [inhibitor, partial curve]
Cc1cccc(N2CC(c3nc4ccc(C)cc4[nH]3)CC2=O)c1 (centres undefined) 0.141 µM [inhibitor, full curve, poor fit]
CC(C)CCCC(C)NC(=O)c1cc(S(=O)(=O)N2CCCCC2)ccc1N1CCOCC1 (centres undefined) 44.7 µM [inhibitor, partial curve, poor fit]
O=C(CSc1nc(-c2ccc(F)cc2)nc2c1Cc1ccccc1O2)Nc1cccc(C(=O)O)c1 35.5 µM [inhibitor, single point] and 44.7 µM [inhibitor, partial curve, poor fit]
O=C1N=C(N2CCOCC2)SC1=Cc1ccco1 3.16 µM [inhibitor, full curve]
CCOc1ccc(NC(=O)CS(=O)CC(=O)Nc2cccnc2)cc1 (centres undefined) 7.08 µM [inhibitor, partial curve]
CCOC(=O)C1C(=O)NC(C(=O)OCC)(C(=O)OCC)C1C(C)CC (centres undefined) 50.1 µM [inhibitor, partial curve, poor fit]
O=C1CCCC(=NNC(=O)c2cc3ccccc3cc2O)C1 50.1 µM [inhibitor, partial curve, poor fit]
Cc1cn(C)c(CC(=O)N2CCN(c3cccc(C(F)(F)F)c3)CC2)c1C(=O)O 7.94 µM [inhibitor, single point]
Cc1ccc(-n2nc3cc(C)c(NC(=O)COc4ccccc4)cc3n2)cc1 5.01 µM [inhibitor, partial curve, poor fit]
COc1ccc(-c2cc(-c3ccccc3)c(C#N)c(SCC(O)CS(=O)(=O)Cc3ccccc3)n2)cc1 (centres undefined) 0.794 µM [inhibitor, full curve, poor fit]
COc1cc(O)c(NC(C)=O)c2nonc12 10 µM [inhibitor, partial curve]
COc1ccc(-c2ccnc3c(-c4ccc(F)cc4)c(C)nn23)cc1OC 50.1 µM [inhibitor, partial curve, poor fit]
Oc1ccccc1C=NCCN1CCN(CCN=Cc2ccccc2O)C1c1ccccc1O (centres undefined) 70.8 µM [inhibitor, partial curve, poor fit]
CCOC(=O)c1cc[nH]c1CC(=O)NC 50.1 µM [inhibitor, partial curve]
Cc1ccc(N2C(=O)Cc3ccccc3C2=O)cc1 15.8 µM [inhibitor, partial curve]
Cc1cc(C(=O)N/N=C/c2cc(N=Nc3ccccc3)ccc2O)n[nH]1 28.2 µM [inhibitor, partial curve]
COc1ccccc1N1CCN(S(=O)(=O)c2ccc(F)c(C(=O)Nc3ccc(C)c(F)c3)c2)CC1 0.1 µM [inhibitor, full curve]
O=C(Cc1ccc(Cl)cc1)Nc1cccnc1Cl 0.282 µM [inhibitor, full curve]
O=[N+]([O-])c1cccc(C=Nc2cccc3ccccc23)c1O 22.4 µM [inhibitor, partial curve, poor fit]
COc1ccc(C2c3c(n(C)c4ccccc34)C(=O)N2CC(=O)Nc2ccc(Cl)cc2)cc1 (centres undefined) 11.2 µM [inhibitor, partial curve]
COC(=O)c1cc2oc(C)cc2n1Cc1c(C)cc(C)cc1C 8.91 µM [inhibitor, partial curve, poor fit]
NC(=O)CC1Nc2cccc3cccc(c23)NC1=O (centres undefined) 44.7 µM [inhibitor, partial curve, poor fit]
COc1ccccc1NC(=O)CN(c1ccc(C(C)C)cc1)S(=O)(=O)c1c(C)noc1C 2.82 µM [inhibitor, full curve]

An excerpt from further up, for reference:
Potency, inconclusive:
O=C1N=C(N2CCOCC2)SC1=Cc1ccco1 3.16 µM [inhibitor, full curve]
CCOc1ccc(NC(=O)CS(=O)CC(=O)Nc2cccnc2)cc1 (centres undefined) 7.08 µM [inhibitor, partial curve]

Next part.

Activity change, negative = inhibition, inactive:
C=CCn1c(SCC(=O)NC2CC2)nc2sc(CC)cc2c1=O -20.6%
Cc1ccc(C(=O)CC2(O)C(=O)N(Cc3ccccc3)c3ccccc32)o1 (centres undefined) 7.39%
O=C(NC1(C(F)(F)F)N=C(c2ccccc2)N(C2CCCCC2)C1=O)c1ccc(F)cc1 (centres undefined) -31.1%
O=S(=O)(NCCN1CCN(S(=O)(=O)c2ccccc2F)CC1)c1ccccc1F -9.2%
O=C(Nc1ccc(Br)cc1)N1CCc2ccccc2C1 -14.6%
CC1CN(C(=O)N2CCC(C(=O)NC3CCCCCC3)CC2)c2cc(Cl)ccc2O1 (centres undefined) -22.1%
Cc1ccc(NC(=O)C2CCCN2S(=O)(=O)c2cccc3cccnc23)cc1 (centres undefined) -11.3%
COc1ccccc1N(CC(=O)Nc1cc(C)on1)S(=O)(=O)c1cccc(C(F)(F)F)c1 -25.3%
COc1ccc(/C=C2/NC(=O)N(Cc3ccccc3F)C2=O)cc1OC -20.8%
C/C(=N\NS(=O)(=O)c1ccc(C)c([N+](=O)[O-])c1)c1cccs1 -18.3%
COc1ccc2c(c1)NC(c1ccc(OCC(C)C)cc1)=NC(c1ccncc1)=N2 -12.9%
S=C(NN=C1CCCCCC1)Nc1ccc(Cl)cc1 -8.48%
O=C(CCCOc1ccc(Cl)cc1Cl)N/N=C/c1ccc(Cl)cc1 -7.12%
O=C(Cn1cnc2ccccc2c1=O)Nc1ccc(-c2nnc3n2CCCCC3)cc1 -5.61%
O=C(O)c1cc(-c2cccc3ccccc23)nc2ccccc12 -26.1%
COc1cc2c(cc1OC)C(c1ccc(Cl)cc1)N(c1ccc(C)c(F)c1)C(=O)C2 (centres undefined) -12.2%
